# Source: the supplement of paper PMC6411743
# ± gives the standard deviation of the averaged measurements. The list shows a part of the results.
# Assays:
# Assay in all cases: NP40-soluble protein abundance relative to vehicle (solubility fold change) (ratio); higher = more soluble protein in presence of GTP
# DDX52 = biological target: T1, DDX52 (UniProt Q9Y2R4)
# T1 sequence (whole entry): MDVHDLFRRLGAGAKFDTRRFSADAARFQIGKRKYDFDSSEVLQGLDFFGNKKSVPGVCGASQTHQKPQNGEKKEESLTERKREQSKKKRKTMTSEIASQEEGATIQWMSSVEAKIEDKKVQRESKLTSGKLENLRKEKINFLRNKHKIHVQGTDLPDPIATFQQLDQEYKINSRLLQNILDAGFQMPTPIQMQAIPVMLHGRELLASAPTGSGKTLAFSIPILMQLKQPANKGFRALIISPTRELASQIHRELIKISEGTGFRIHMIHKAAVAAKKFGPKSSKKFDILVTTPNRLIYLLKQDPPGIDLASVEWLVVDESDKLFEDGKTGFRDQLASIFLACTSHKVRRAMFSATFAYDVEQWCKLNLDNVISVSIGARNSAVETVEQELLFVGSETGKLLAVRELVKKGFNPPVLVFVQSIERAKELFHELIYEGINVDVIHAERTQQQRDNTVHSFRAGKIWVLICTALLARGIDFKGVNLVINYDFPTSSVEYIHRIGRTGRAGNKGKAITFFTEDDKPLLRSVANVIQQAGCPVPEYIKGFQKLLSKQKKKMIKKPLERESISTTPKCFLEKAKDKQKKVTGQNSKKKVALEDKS
# How it was run: (§1)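 Each value is a fold change relative to the detergent-processed vehicle, calculated per replicate from vsn-normalised intensities. Jurkat crude lysate received eight concentrations (0.1 to 10 mM) for 10 min at room temperature and 3 min at 37 °C, then was solubilised in 0.8% NP40 with benzonase (60 min, 4 °C). The ultracentrifuged supernatant was TMT-labelled and run by LC-MS/MS in three independent experiments.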
# DERA = biological target: T2, DERA (UniProt Q9Y315)
# T2 sequence (whole entry): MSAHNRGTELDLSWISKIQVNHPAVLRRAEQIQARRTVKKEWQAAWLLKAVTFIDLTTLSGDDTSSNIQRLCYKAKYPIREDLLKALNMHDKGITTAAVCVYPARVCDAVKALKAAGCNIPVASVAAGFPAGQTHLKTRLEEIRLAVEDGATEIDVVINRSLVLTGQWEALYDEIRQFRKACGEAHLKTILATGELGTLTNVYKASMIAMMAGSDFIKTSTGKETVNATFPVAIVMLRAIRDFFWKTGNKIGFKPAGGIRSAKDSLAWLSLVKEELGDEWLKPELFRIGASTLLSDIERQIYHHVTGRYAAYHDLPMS
# How it was run: as §1
# FHOD1 = biological target: T3, FHOD1 (UniProt Q9Y613)
# T3 sequence (whole entry): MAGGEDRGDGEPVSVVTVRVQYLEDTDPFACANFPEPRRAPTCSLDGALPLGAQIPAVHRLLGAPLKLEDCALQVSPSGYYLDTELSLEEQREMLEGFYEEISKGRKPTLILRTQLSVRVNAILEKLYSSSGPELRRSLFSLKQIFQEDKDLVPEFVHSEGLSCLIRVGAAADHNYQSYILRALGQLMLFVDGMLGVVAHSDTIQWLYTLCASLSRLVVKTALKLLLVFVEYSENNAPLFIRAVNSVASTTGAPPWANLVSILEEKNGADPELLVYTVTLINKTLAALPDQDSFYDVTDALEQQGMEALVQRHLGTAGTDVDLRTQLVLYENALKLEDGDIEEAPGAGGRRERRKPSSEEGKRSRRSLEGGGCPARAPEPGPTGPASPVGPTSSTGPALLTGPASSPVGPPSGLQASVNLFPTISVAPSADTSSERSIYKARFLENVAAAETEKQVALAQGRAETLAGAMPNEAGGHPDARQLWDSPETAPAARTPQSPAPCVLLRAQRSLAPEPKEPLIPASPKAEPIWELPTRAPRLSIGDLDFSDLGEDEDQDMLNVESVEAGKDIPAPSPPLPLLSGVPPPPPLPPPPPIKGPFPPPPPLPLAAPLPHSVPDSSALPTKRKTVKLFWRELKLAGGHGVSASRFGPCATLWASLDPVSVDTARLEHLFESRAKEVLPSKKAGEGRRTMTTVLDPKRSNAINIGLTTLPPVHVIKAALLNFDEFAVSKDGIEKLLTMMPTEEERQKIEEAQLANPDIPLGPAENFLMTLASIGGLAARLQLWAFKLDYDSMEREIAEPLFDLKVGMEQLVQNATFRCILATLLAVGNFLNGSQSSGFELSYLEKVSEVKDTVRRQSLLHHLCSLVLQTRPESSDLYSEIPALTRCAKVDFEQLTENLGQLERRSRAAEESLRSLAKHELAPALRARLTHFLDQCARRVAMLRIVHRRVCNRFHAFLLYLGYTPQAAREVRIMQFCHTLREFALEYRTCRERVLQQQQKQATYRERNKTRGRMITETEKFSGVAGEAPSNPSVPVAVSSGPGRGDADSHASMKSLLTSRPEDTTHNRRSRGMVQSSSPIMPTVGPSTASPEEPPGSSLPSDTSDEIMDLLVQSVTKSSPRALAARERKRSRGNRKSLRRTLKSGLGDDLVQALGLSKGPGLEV
# How it was run: as §1
# FIS1 = biological target: T4, FIS1 (UniProt Q9Y3D6)
# T4 sequence (whole entry): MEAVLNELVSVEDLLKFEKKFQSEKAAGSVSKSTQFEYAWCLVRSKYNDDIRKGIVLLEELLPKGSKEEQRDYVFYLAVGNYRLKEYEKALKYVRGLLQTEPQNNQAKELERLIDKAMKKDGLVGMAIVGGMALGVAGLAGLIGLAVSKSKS
# How it was run: as §1
smiles,measurement,setting,value
Nc1nc2c(ncn2[C@@H]2O[C@H](COP(=O)(O)OP(=O)(O)OP(=O)(O)O)[C@@H](O)[C@H]2O)c(=O)[nH]1 [guanosine triphosphate],NP40-soluble protein abundance,DDX52; concentration: 4mM,1.35 ± 0.029
same,NP40-soluble protein abundance,DDX52; concentration: 6mM,1.35 ± 0.049
same,NP40-soluble protein abundance,DDX52; concentration: 8mM,1.47 ± 0.039
same,NP40-soluble protein abundance,DDX52; concentration: 10mM,1.57 ± 0.042
same,NP40-soluble protein abundance,DERA; concentration: 0.1mM,1.05 ± 0.085
same,NP40-soluble protein abundance,DERA; concentration: 0.5mM,1.17 ± 0.19
same,NP40-soluble protein abundance,DERA; concentration: 1mM,1.16 ± 0.2
same,NP40-soluble protein abundance,DERA; concentration: 2mM,1.21 ± 0.23
same,NP40-soluble protein abundance,DERA; concentration: 4mM,1.2 ± 0.22
same,NP40-soluble protein abundance,DERA; concentration: 6mM,1.19 ± 0.23
same,NP40-soluble protein abundance,DERA; concentration: 8mM,1.2 ± 0.21
same,NP40-soluble protein abundance,DERA; concentration: 10mM,1.15 ± 0.21
same,NP40-soluble protein abundance,FHOD1; concentration: 0.1mM,1.03 ± 0.051
same,NP40-soluble protein abundance,FHOD1; concentration: 0.5mM,1.01 ± 0.023
same,NP40-soluble protein abundance,FHOD1; concentration: 1mM,0.992 ± 0.059
same,NP40-soluble protein abundance,FHOD1; concentration: 2mM,0.958 ± 0.042
same,NP40-soluble protein abundance,FHOD1; concentration: 4mM,0.99 ± 0.025
same,NP40-soluble protein abundance,FHOD1; concentration: 6mM,0.942 ± 0.049
same,NP40-soluble protein abundance,FHOD1; concentration: 8mM,0.921 ± 0.026
same,NP40-soluble protein abundance,FHOD1; concentration: 10mM,0.932 ± 0.074
same,NP40-soluble protein abundance,FIS1; concentration: 0.1mM,1.08 ± 0.34
same,NP40-soluble protein abundance,FIS1; concentration: 0.5mM,1.01 ± 0.23
same,NP40-soluble protein abundance,FIS1; concentration: 1mM,1.14 ± 0.32
same,NP40-soluble protein abundance,FIS1; concentration: 2mM,1.14 ± 0.23
same,NP40-soluble protein abundance,FIS1; concentration: 4mM,1.1 ± 0.27
same,NP40-soluble protein abundance,FIS1; concentration: 6mM,1.14 ± 0.18
same,NP40-soluble protein abundance,FIS1; concentration: 8mM,1.1 ± 0.2
same,NP40-soluble protein abundance,FIS1; concentration: 10mM,1.15 ± 0.34

# 2 records picked at random from the list so far, as already listed:
smiles,measurement,setting,value
Nc1nc2c(ncn2[C@@H]2O[C@H](COP(=O)(O)OP(=O)(O)OP(=O)(O)O)[C@@H](O)[C@H]2O)c(=O)[nH]1 [guanosine triphosphate],NP40-soluble protein abundance,FIS1; concentration: 0.1mM,1.08 ± 0.34
same,NP40-soluble protein abundance,DERA; concentration: 6mM,1.19 ± 0.23
